These results are taken from patent US20160289313A1.

The chains behind the UniProt entries cited, without tags or fusion partners. Where a name states a change or a piece, a line headed by the entry shows the natural chain unless it says otherwise. A line that says so, or that is headed by a name, gives the form on record, which may keep a tag or linker.
recombinant canine VEGF protein (Q9MYV3, form named): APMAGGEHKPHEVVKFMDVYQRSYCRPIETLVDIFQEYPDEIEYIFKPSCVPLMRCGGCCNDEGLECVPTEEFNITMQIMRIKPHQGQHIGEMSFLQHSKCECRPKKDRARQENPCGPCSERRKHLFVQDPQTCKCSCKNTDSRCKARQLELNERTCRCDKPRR

The test addresses recombinant canine VEGF protein (canine) (UniProt Q9MYV3). Put plainly: ELISA screening of hybridoma clones, first on mammalian cell-produced and then on E. coli-produced canine VEGF; mAb 57C was selected from the positive clones. (ELISA stands for enzyme-linked immunosorbent assay.)

Results are given in words; binding and its absence hold for the method and conditions named. Some results given as binding are weak or reduced against the parent protein; the word gives no strength.

B1: anti-canine VEGF antibody mAb 57C (antibody, V domains shown)
VH: QVQLQQSGAELMKPGASVKISCKATGYTFSSYWIEWVKQRPGHGLEWIGEIFPGGGDPKYNENFKGKATFTTDASSNTAYMQLSSLTSEDSAVYYCARGTFGFYAMDYWGQGTSVTVSS
VL: DAVMTQTPLSLPVSLGDQVSISCRSSQSLENSNGNTYLNWYLQKPGQSPQLLIYRVSNRFSGVLDRFSGSGSGTDFTLKISRVEAEDLGVYFCLQVTHVPYTFGGGTKLEIKR
Regarding B1, the binding result is on record as “binds”.
